2 substances from PMC9519968 can be followed below.

Protein sequences, listed by entry. Tags and fused reporters are not part of them.
UniProt Q9WTM5: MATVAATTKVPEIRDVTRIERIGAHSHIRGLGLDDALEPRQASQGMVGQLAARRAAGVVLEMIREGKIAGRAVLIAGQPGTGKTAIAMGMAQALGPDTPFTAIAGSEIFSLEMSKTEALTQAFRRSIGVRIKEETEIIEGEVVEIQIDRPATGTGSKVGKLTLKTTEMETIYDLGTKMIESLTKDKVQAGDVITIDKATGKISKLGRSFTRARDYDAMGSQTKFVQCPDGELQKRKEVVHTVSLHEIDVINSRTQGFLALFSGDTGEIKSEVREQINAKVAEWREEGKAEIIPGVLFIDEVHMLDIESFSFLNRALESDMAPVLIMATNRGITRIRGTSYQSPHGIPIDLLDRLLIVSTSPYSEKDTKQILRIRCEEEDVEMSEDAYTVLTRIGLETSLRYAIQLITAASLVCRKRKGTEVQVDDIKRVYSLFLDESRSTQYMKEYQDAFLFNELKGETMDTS
UniProt Q8BKX6: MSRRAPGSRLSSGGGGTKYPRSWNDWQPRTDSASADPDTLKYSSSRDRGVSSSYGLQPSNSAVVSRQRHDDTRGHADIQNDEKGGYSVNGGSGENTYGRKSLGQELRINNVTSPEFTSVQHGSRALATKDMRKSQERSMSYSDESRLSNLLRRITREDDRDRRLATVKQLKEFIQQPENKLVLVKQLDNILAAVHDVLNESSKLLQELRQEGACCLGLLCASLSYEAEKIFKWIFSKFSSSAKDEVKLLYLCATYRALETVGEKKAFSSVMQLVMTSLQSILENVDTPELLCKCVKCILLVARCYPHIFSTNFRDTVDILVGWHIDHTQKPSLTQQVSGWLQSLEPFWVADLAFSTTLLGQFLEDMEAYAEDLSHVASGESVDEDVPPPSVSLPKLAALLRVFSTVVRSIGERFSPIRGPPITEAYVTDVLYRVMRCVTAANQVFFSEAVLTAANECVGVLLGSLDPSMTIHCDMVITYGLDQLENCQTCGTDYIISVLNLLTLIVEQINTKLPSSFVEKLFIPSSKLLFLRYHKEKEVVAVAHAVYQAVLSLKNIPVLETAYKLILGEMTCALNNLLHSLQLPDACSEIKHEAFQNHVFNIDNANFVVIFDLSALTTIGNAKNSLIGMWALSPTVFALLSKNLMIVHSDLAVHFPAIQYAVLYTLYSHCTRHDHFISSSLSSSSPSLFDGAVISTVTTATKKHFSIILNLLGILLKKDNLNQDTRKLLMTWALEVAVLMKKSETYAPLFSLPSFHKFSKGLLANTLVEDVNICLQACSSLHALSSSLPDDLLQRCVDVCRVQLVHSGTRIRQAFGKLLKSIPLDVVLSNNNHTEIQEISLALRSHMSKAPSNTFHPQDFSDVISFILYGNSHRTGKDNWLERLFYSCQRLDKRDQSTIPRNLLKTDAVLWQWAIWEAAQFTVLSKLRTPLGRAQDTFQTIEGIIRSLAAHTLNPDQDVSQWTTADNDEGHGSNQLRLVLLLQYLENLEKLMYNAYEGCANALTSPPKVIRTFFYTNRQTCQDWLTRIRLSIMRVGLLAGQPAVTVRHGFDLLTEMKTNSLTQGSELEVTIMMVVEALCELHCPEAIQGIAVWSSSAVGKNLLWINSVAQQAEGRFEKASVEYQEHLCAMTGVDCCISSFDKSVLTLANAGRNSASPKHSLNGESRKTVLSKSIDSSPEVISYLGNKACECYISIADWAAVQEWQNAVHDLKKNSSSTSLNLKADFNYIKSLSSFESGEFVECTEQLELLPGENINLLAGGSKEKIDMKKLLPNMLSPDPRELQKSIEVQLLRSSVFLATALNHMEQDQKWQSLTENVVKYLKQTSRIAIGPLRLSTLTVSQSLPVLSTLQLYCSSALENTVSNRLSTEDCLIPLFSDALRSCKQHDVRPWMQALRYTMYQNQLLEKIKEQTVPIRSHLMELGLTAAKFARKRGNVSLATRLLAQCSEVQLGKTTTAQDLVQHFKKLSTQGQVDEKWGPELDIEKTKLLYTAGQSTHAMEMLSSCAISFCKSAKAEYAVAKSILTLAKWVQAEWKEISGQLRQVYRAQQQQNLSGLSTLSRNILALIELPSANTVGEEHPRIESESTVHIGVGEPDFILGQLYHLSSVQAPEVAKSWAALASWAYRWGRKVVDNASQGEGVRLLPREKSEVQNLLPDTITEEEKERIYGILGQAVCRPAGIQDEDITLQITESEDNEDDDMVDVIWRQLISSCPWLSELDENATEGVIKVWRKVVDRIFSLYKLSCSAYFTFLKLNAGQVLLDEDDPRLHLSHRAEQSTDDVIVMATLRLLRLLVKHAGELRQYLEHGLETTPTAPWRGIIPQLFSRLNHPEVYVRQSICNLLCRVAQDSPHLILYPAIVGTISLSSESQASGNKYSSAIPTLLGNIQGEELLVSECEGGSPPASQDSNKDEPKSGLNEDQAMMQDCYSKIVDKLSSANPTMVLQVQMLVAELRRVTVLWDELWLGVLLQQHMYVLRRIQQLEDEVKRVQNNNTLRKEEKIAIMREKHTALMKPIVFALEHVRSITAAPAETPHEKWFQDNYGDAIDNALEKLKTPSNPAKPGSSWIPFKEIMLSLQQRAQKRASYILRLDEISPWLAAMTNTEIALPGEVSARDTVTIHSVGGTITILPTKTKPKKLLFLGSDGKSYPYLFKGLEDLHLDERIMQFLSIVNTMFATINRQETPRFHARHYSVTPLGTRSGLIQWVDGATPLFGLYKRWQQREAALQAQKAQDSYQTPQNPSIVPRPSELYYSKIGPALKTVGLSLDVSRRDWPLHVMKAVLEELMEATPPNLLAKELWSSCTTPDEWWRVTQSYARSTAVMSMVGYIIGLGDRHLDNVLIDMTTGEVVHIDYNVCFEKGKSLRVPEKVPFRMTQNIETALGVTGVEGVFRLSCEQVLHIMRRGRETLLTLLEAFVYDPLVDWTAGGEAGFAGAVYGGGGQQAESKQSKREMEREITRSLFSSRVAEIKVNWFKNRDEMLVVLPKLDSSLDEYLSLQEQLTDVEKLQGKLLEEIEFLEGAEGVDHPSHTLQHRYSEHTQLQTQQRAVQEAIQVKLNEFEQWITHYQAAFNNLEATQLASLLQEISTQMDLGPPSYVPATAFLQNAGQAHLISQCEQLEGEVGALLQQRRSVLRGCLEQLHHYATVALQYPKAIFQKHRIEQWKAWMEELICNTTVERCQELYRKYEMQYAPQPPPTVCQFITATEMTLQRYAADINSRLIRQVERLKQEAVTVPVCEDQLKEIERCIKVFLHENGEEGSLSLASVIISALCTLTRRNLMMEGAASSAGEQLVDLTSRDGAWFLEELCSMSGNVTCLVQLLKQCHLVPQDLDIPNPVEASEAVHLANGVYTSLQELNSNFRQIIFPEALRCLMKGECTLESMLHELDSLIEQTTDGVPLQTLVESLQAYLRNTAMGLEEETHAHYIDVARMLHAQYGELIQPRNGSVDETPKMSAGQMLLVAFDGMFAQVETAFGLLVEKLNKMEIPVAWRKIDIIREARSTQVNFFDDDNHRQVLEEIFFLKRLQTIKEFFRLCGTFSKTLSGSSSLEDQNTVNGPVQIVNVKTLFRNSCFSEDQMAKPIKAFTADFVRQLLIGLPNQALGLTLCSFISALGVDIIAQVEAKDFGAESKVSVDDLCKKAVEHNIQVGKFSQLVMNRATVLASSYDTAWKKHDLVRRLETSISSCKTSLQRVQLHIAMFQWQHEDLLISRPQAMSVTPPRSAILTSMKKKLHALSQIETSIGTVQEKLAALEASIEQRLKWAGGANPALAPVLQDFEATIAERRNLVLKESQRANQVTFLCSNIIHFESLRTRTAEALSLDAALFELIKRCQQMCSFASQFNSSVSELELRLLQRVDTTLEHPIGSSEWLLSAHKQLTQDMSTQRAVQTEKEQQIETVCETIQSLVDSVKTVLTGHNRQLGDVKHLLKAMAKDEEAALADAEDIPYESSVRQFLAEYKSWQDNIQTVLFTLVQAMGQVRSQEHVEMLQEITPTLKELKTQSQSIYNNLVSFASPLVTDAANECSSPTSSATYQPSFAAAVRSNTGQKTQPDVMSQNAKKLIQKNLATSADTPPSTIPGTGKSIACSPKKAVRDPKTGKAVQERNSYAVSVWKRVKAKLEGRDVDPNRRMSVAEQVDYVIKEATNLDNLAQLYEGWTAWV
UniProt Q8CHK4: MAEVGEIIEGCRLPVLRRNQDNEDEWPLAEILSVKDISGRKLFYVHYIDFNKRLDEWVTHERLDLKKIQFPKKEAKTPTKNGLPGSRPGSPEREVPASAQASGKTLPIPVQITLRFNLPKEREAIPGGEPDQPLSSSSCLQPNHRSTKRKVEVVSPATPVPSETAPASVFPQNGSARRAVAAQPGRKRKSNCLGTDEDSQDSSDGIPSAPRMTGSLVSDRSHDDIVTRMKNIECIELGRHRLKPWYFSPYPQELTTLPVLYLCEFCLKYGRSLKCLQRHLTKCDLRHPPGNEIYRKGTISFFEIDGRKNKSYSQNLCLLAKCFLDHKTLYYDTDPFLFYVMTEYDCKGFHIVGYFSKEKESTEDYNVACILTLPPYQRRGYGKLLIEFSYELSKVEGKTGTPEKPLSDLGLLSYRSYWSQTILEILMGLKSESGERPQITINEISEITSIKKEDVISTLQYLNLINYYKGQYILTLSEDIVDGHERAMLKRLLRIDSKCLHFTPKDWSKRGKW

Results are given in words; binding and its absence hold for the method and conditions named. In cells and extracts the contact can be indirect. A yes stands for co-enrichment or nearness to the bait. Other partners may have been found.

This assay deals with RUVBL2 (mouse (endogenous in mESCs)) (UniProt Q9WTM5). Description: affinity purification with mass spectrometry; RUVBL2 ChIP-MS: mESCs cross-linked with 1% formaldehyde, chromatin digested with MNase and sonicated, antibody and Protein G magnetic beads, washes with 500 mM NaCl and 250 mM LiCl buffers; cutoff IP/GFP >= 1.49 and IP/Input >= 0.5.

SMG1 (from UniProt Q8BKX6 1-3658): the binding result is given as “binds”.

For the substance TIP60 (from UniProt Q8CHK4 1-513), the binding entry was “binds”.
